Results from paper PMC4778850.
No constants are given. Whether binding was seen depends on the method and setting. For some of these results: Binding seen in cells or lysates may run through a third protein. Tags and fused reporters may be left off the sequences shown. Each block holds one binder with its values, some of them ahead of it.

Tests used:
[1] = biological target: T1, PID (PINOID), tagged protein expressed in E. coli for the pull-down (Arabidopsis thaliana) (UniProt O64682); test: pull-down; His-tagged and GST-tagged proteins from E. coli BL21; Glutathione Sepharose 4B or Ni-NTA agarose (His beads); bound proteins eluted and blotted with anti-GST and anti-HIS; both purified
T1 sequence: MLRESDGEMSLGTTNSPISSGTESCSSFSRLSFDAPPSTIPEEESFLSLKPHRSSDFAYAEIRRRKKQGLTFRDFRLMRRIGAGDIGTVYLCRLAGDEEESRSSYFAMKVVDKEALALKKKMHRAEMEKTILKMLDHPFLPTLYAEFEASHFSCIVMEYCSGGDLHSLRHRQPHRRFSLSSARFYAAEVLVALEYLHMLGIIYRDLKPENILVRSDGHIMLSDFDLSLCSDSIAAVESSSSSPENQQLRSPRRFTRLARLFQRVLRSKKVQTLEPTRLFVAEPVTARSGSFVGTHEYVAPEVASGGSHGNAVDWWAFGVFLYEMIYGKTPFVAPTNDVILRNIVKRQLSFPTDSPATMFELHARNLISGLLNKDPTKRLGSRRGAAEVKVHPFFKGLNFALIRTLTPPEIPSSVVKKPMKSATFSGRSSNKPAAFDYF

[2] = biological target: T2, WAG2-Myc (Arabidopsis thaliana) (UniProt Q9LUL2); test: co-IP; YFP-NCP1 co-expressed with PID-Myc or WAGs-Myc in N. benthamiana leaves; extract incubated 3 hr with anti-Myc-tag mAb-agarose in IP buffer (20 mM Tris-HCl pH 7.5, 150 mM NaCl, 0.1% Triton X-100); blots with anti-Myc or anti-GFP
T2 sequence: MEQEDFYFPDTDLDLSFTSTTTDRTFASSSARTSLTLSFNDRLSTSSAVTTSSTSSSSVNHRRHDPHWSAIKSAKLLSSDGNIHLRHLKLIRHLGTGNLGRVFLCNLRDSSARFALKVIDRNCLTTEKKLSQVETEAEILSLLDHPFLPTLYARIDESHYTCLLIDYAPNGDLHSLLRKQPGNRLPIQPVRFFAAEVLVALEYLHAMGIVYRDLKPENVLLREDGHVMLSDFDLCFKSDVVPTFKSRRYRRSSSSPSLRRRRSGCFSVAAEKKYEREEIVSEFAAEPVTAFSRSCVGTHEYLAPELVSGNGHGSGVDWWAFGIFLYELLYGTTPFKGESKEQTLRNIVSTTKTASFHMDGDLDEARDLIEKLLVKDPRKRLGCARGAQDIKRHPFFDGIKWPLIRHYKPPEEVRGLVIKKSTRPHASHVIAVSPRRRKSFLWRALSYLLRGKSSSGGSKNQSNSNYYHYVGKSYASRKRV

[3] = biological target: T3, WAG1-Myc (Arabidopsis thaliana) (UniProt Q9C8M5); test: as above
T3 sequence: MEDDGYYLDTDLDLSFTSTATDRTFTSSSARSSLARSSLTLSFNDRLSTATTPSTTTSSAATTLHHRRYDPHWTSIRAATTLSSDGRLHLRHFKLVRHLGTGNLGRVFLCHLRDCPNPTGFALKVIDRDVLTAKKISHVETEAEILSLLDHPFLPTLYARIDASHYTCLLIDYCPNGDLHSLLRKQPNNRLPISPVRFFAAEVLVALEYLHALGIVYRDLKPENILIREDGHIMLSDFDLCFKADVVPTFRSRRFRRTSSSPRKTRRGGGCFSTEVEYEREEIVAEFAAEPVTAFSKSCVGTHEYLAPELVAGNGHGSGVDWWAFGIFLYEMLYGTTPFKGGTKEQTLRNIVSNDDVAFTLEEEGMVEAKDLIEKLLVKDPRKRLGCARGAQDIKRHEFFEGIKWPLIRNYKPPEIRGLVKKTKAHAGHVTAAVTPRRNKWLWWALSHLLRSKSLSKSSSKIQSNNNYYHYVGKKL

[4] = biological target: T4, PID-Myc (Arabidopsis thaliana) (UniProt O64682); test: as above
T4 sequence: T1 sequence

binding [1]: no binding
B1: NCP1/AtMOB1A, tagged protein expressed in E. coli for the pull-down (protein, UniProt Q9FHI1 1-215)
chain: MSLFGLGRNQKTFRPKKSAPSGSKGAQLRKHIDATLGSGNLREAVRLPPGEDANEWLAVNTVDFFNQVNLLYGTLTEFCTPDNCPTMTAGPKYEYRWADGVQIKKPIEVSAPKYVEYLMDWIETQLDDETLFPQRLGAPFPQNFKDVVKTIFKRLFRVYAHIYHSHFQKIVSLKEEAHLNTCFKHFILFTHEFGLIDKKELAPLQELIESIISPY

binding [2]: no binding
binding [3]: no binding
binding [4]: no binding
B2: YFP-NCP1 (protein, UniProt Q9FHI1 1-215)
chain: B1 chain
